Laboratory results: the supplement of paper PMC6289059
Where “and” joins values, the source holds several entries; their conditions need not be identical. Equal entries are not always repeated. This is one part of the list. Repeats are few or missing, and single values can be far off.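 The assay uses human stem cell-derived hepatocyte-like cells whose DGUOK gene was disrupted by CRISPR, modeling liver mtDNA depletion syndrome. ATP signals were scored within each plate, and any drug with a score of at least 3 was called a primary hit.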

Tested on: DGUOK Δ14/Δ5 iPSC-derived hepatocyte-like cells (SV20)
Experiment: ATP level (CellTiter-Glo luminescence) Z score relative to plate distribution, under 2-DG glycolysis block; higher = more cellular ATP (rescue of mitochondrial ATP production)
Conditions: 5 µM; treatment time: day 15 to day 20 of differentiation (5 days); 2-deoxy-D-glucose: 20 mM for 24 h before assay

Compound | ATP level
COC(=O)Nc1nc2cc([S+]([O-])c3ccccc3)ccc2[nH]1 (configuration not stated) | inactive: -3.1
O=c1cc(-c2ccccc2)oc2cccc(O)c12 | inactive: 0.31
CNc1ccccc1C(=O)N1CCc2c([nH]c3ccccc23)C1=O | inactive: -4.97
COc1ccc2c(=O)c(CC(=O)O)coc2c1 | inactive: 0.731
COc1ccccc1OCC(O)COC(N)=O (configuration not stated) | inactive: 0.693
Nc1c2c(nc3ccccc13)CCCC2O (configuration not stated) | inactive: -1.31
Nc1ccn([C@@H]2CS[C@H](CO)O2)c(=O)n1 | inactive: 1.45
Cc1cc(N)c2ccccc2[n+]1CCCCCCCCCC[n+]1c(C)cc(N)c2ccccc21 | inactive: -8.85
CO/N=C(\C(=O)N[C@@H]1C(=O)N2C(C(=O)OC(C)OC(C)=O)=C(COC(N)=O)CS[C@H]12)c1ccco1 (some centres not stated) | inactive: 0.177
COc1cc(O)ccc1C(C)=O | inactive: 0.797
CC(=O)OCC(=O)[C@H]1CC[C@H]2[C@@H]3CCC4=CC(=O)CC[C@]4(C)[C@H]3CC[C@]12C | inactive: -1.4
C#C[C@]1(O)CC[C@H]2[C@@H]3CCC4=CC(=O)CC[C@@H]4[C@H]3CC[C@@]21CC | inactive: 0.494
CC(C)CCCC(C)NC(C)C (configuration not stated) | inactive: 2.24 and inactive: 1.32
N=C(N)NCCN1CCCCCCC1 | inactive: -4.34
CC1(C)[C@@H](OC(=O)CCC(=O)O)CC[C@]2(C)[C@H]3C(=O)C=C4[C@@H]5C[C@@](C)(C(=O)O)CC[C@]5(C)CC[C@@]4(C)[C@]3(C)CC[C@@H]12 | inactive: 1.09
CC(CN(C)C)CN1c2ccccc2Sc2ccccc21 (configuration not stated) | inactive: -0.761
C=CCOC(Cn1ccnc1)c1ccc(Cl)cc1Cl (configuration not stated) | inactive: -3.33
O=C(/C=C/c1ccc(O)c(O)c1)O[C@@H]1C[C@](O)(C(=O)O)C[C@@H](O)[C@H]1O | inactive: 2.09
CC[C@@H](CO)NCCN[C@@H](CC)CO | inactive: -1.09
C[C@]1(Cn2ccnn2)[C@H](C(=O)O)N2C(=O)C[C@H]2S1(=O)=O | inactive: 1.05
CC(=O)OCC(=O)[C@@]1(OC(C)=O)[C@@H](C)C[C@H]2[C@@H]3C[C@H](F)C4=CC(=O)C=C[C@]4(C)[C@@]3(F)[C@@H](O)C[C@@]21C | inactive: -17.8

Compound | ATP level
Nc1ccccc1C(=O)CC(N)C(=O)O (configuration not stated) | inactive: 0.904
CCCCC/C=C\C/C=C\C/C=C\C/C=C\CCCC(=O)O | inactive: -1.7
CCN(CC)CCOCCOC(=O)C(CC)(CC)c1ccccc1 | inactive: 0.874
CCCOc1ccc(C(=O)OCCN(CC)CC)cc1N | inactive: 1.68
C=CCSCC1Nc2cc(Cl)c(S(N)(=O)=O)cc2S(=O)(=O)N1 (configuration not stated) | inactive: 1.09
Cc1cc(-c2ccc(/N=N/c3ccc4c(S(=O)(=O)O)cc(S(=O)(=O)O)c(N)c4c3O)c(C)c2)ccc1/N=N/c1ccc2c(S(=O)(=O)O)cc(S(=O)(=O)O)c(N)c2c1O | inactive: -0.332
c1ccc(CN(CC2=NCCN2)c2ccccc2)cc1 | inactive: -0.339
NC(=O)NS(=O)(=O)c1ccc(N)cc1 | inactive: 0.774
CC(=O)N(CC(O)CN(C(C)=O)c1c(I)c(C(=O)NCC(O)CO)c(I)c(C(=O)NCC(O)CO)c1I)c1c(I)c(C(=O)NCC(O)CO)c(I)c(C(=O)NCC(O)CO)c1I (configuration not stated) | inactive: -0.0346
CCCCCCCCCCCCCCCCOP(=O)([O-])OCC[N+](C)(C)C | inactive: -3.08
Cc1ccsc1/C=C/C1=NCCCN1C | inactive: 0.785
COc1cc(C=CC(=O)O)cc(OC)c1O | inactive: 0.75
COc1cc(OC)c2c(=O)c(-c3ccc4c(c3)OCO4)coc2c1 | inactive: 0.333
Nc1nc(NC2CC2)c2ncn([C@H]3C=C[C@@H](CO)C3)c2n1 | inactive: 0.606
CCN(CC)CCNc1ccc(CO)c2sc3ccccc3c(=O)c12 | inactive: -34.6
CCOc1ccc2nc3cc(N)ccc3c(N)c2c1 | inactive: -11.6
O=c1c(O)cc([C@H]2Oc3cc(O)cc(O)c3C[C@H]2O)cc2c([C@H]3Oc4cc(O)cc(O)c4C[C@H]3O)cc(O)c(O)c12 | inactive: 1.86
N[C@@H](Cc1ccc(O)cc1)C(=O)O | inactive: 1.21
O=C(COc1ccc(Cl)cc1)N1CCN(Cc2ccc3c(c2)OCO3)CC1 | inactive: -0.518
CC(C)(C)CC(C)(C)c1ccc(O)c(Cc2ccc(Cl)cc2Cl)c1 | inactive: -1.09
C[C@H]1[C@H](C)CC[C@]2(C(=O)O)CC[C@]3(C)C(=CC[C@@H]4[C@@]5(C)C[C@@H](O)[C@H](O)[C@@](C)(CO)[C@@H]5CC[C@]43C)[C@H]12 | inactive: -2.07

Single entries from the entries so far:
ATP level, Cc1ccsc1/C=C/C1=NCCCN1C reads inactive: 0.785
ATP level, CCCOc1ccc(C(=O)OCCN(CC)CC)cc1N reads inactive: 1.68

Given in markdown: two of the compounds above.

| Compound | ATP level |
| --- | --- |
| CCCOc1ccc(C(=O)OCCN(CC)CC)cc1N | inactive: 1.68 |
| C=CCSCC1Nc2cc(Cl)c(S(N)(=O)=O)cc2S(=O)(=O)N1 (configuration not stated) | inactive: 1.09 |
